The values that follow come from paper PMC6450627.

Chains of the proteins cited; added tags and fusions are not shown.
UniProt P70398: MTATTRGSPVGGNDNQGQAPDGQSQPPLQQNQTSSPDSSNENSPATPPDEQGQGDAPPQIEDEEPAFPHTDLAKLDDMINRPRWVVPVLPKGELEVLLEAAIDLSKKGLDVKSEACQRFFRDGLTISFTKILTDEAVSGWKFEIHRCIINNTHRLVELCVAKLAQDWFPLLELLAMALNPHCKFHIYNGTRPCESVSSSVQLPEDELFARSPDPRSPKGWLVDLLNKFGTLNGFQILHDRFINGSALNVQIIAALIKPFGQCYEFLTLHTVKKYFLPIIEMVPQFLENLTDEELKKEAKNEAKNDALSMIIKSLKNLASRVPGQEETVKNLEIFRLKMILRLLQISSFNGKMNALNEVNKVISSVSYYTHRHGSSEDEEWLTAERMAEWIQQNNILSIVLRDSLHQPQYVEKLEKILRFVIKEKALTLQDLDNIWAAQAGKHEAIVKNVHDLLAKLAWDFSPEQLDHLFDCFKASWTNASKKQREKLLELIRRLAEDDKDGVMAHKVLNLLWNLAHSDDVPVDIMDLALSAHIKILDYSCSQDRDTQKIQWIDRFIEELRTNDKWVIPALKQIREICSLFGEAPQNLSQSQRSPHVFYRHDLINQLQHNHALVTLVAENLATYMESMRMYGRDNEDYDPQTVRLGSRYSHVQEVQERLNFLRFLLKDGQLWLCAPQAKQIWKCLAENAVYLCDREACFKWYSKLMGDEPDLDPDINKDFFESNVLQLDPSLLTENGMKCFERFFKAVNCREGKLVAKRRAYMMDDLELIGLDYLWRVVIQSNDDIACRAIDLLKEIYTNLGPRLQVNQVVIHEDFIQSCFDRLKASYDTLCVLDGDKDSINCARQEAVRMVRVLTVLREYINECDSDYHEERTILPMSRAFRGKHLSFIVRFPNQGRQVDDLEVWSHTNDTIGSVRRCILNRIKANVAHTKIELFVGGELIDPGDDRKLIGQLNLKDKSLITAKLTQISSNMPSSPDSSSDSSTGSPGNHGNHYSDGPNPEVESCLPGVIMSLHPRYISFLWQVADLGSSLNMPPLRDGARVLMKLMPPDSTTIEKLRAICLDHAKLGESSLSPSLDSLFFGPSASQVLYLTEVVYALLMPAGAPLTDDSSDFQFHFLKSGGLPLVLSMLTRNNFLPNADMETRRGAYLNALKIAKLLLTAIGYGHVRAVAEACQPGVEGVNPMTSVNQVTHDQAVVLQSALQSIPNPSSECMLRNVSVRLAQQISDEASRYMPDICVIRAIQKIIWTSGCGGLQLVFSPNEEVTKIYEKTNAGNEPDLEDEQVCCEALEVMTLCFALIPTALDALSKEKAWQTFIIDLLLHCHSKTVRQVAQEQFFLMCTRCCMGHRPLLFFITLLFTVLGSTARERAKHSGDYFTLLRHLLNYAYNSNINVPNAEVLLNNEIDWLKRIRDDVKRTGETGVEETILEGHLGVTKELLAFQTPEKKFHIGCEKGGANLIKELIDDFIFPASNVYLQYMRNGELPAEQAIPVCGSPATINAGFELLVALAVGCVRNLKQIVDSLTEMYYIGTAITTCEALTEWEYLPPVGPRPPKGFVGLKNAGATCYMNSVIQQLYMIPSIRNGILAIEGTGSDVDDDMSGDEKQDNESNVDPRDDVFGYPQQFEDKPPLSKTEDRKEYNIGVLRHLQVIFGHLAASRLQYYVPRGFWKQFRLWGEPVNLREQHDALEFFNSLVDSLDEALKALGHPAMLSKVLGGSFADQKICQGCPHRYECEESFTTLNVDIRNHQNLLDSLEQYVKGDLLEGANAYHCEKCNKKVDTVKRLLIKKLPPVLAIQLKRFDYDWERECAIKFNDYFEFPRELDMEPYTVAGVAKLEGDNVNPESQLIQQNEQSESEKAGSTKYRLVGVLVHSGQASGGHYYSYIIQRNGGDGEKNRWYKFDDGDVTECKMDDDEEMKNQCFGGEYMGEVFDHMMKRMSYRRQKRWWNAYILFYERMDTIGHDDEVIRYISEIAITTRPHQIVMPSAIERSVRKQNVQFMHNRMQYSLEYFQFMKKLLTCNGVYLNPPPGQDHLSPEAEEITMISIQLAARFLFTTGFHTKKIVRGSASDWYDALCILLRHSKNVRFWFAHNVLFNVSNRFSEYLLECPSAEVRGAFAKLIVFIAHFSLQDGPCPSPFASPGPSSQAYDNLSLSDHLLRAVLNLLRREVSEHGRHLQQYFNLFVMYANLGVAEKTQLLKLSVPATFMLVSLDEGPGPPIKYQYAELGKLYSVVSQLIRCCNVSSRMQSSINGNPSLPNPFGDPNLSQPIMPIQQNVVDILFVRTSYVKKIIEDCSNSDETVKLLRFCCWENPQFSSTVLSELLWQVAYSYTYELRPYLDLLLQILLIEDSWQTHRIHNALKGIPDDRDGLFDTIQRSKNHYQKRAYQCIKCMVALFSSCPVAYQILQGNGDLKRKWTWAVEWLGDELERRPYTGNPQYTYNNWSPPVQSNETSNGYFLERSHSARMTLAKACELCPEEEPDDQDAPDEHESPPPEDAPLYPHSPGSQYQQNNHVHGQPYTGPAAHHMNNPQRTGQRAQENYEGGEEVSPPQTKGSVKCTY

These are yes or no findings as the source states them, for the method shown. Binding seen in cells or lysates may run through a third protein. Some results given as binding are weak or reduced against the parent protein; the word gives no strength. Tags and fused reporters may be left off the sequences shown.

The target of this assay is USP9X (untagged, endogenous) (mouse (endogenous in ESCs and TSCs)) (UniProt P70398). The experiment in a line: co-IP; USP9X antibody immunoprecipitation from Peg10^3xf/+ Usp9x^fl/y Rosa26.CreERT2 ESC lysate, tagged PEG10 detected with anti-FLAG blot; control: 4-hydroxytamoxifen to delete Usp9x.

B1: 3xFLAG.PEG10-RF1/2 (protein, UniProt Q7TN75 1-958)
chain: MAAAGGSSNCPPPPPPPPPNNNNNNNTPKSPGVPDAEDDDERRHDELPEDINNFDEDMNRQFENMNLLDQVELLAQSYSLLDHLDDFDDDDEDDDFDPEPDQDELPEYSDDDDLELQGAAAAPIPNFFSDDDCLEDLPEKFDGNPDMLGPFMYQCQLFMEKSTRDFSVDRIRVCFVTSMLIGRAARWATAKLQRCTYLMHNYTAFMMELKHVFEDPQRREAAKRKIRRLRQGPGPVVDYSNAFQMIAQDLDWTEPALMDQFQEGLNPDIRAELSRQEAPKTLAALITACIHIERRLARDAAAKPDPSPRALVMPPNSQTDPTEPVGGARMRLSKEEKERRRKMNLCLYCGNGGHFADTCPAKASKNSPPGKLPGPAVGGPSATGPERIRSPPSEASTQHLQVMLQIHMPGRPTLFVRAMIDSGASGNFIDQDFVIQNAIPLRIKDWPVMVEAIDGHPIASGPIILETHHLIVDLGDHREILSFDVTQSPFFPIVLGIRWLSTHDPHITWSTRSIVFNSDYCRLRCRMFAQIPSNLLFTVPQPNLHPYLLHHVHPHVHPHMHQHLHQHLHQFLHPDPHQYPHPDPHYHHHQQADMQHQLQQYLYQYLYYHLYPVMHHHLPPDQHEHLHEYLHQYLHQYLHQFLHHHLHPDLHQYLYQYLHNHMNPDPHHHPHPDPPQDPHHPPHQDPHQHPDPHQDPPHQDPHQDAHQDPHMDPHLHQHQHPQPQPHPQQHPNHPQQPPFFYHMAGFRIYHPVRYYYIQNVYTPVDEHVYPGHRVVDPNIEMIPGAHSLPSGHLYSMSESEMNALRNFVDRNVKDGLMTPTVAPNGAQVLQVKRGWKLQVTYNCRAPQSGTIQNQYLRMSLPNMGDPAHLASYGEFVQVPGYPYPAYVYYTSPHMMTAWYPVGRDVHGRIIVVPVVITWSQNTNRQPPVPQYPPPQPPPPPPPPPPPPPPPPASSCSAA
For B1, the binding entry is “binds”.
